Some of these results come from one statement about several compounds together.
Target: T1, cyclin E2/CDK2 (Homo sapiens, UniProt P24941)
T1 construct: made in house; host or cells: Hi5 insect cells (baculovirus, pFastBacDual)
Experiment: CDK2 kinase assay (33P-ATP, Histone-H1)
Type: biochemical

SMILES	IC50
O=c1[nH]c2ccccc2cc1-c1csc(-c2ccc(O)cc2)n1 [Example 81, 3-[2-(4-Hydroxyphenyl)-1,3-thiazol-4-yl]hydroquinolin-2-one]	< 1 µM
Nc1ccc(-c2nc(-c3cc4ccccc4[nH]c3=O)cs2)cc1 [Example 98, 3-[2-(4-Amino-phenyl)-thiazol-4-yl]-1H-quinolin-2-one]	< 1 µM
O=c1[nH]c2cc(CN3CCC(O)CC3)ccc2cc1-c1csc(-c2ccncc2)n1 [Example 8776, 7-(4-Hydroxy-piperidin-1-ylmethyl)-3-(2-pyridin-4-yl-thiazol-4-yl)-1H-quinolin-2-one]	< 1 µM
O=c1[nH]c2cc(CN3CCC(O)C3)ccc2cc1-c1csc(-c2ccncc2)n1 (stereo not shown) [Example 8772, 7-(3-Hydroxy-pyrrolidin-1-ylmethyl)-3-(2-pyridin-4-yl-thiazol-4-yl)-1H-quinolin-2-one]	< 1 µM
CCN(CCN(C)C)C(=O)c1ccc2cc(-c3csc(-c4ccncc4)n3)c(=O)[nH]c2c1 [Example 8760, 2-Oxo-3-(2-pyridin-4-yl-thiazol-4-yl)-1,2-dihydro-quinoline-7-carboxylic acid (2-dimethylamino-ethyl)-ethyl-amide]	< 1 µM
CC(C)(c1nc(-c2cc3ccccc3[nH]c2=O)cs1)S(=O)(=O)c1ccccc1 [Example 8736, 3-(2-(1-Methyl-1-(phenylsulfonyl)ethyl)-1,3-thiazol-4-yl)-2(1H)-quinolinone]	< 1 µM
O=c1[nH]c2ccccc2c(O)c1-c1csc(-c2ccncc2)n1 [Example 5, 3-[2-(4-pyridyl)-4-thiazolyl]-4-hydroxy-2(1H)-quinolinone]	< 1 µM
CC1CCCN(Cc2ccc3cc(-c4csc(CS(=O)(=O)c5ccccc5)n4)c(=O)[nH]c3c2)C1 (stereo not shown) [Example 8747, 7-((3-Methyl-1-piperidinyl)methyl)-3-(2-((phenylsulfonyl)methyl)-1,3-thiazol-4-yl)-2(1H)-quinolinone]	< 1 µM
O=c1[nH]c2ccccc2cc1-c1csc(-c2ccnc(NCCCO)c2)n1 [Example 100, 3-{2-[2-(3-Hydroxy-propylamino)-pyridin-4-yl]-thiazol-4-yl}-1H-quinolin-2-one]	< 1 µM
CC1CC(C)CN(Cc2ccc3cc(-c4csc(-c5ccncc5)n4)c(=O)[nH]c3c2)C1 (stereo not shown) [Example 8778, 7-(3,5-Dimethyl-piperidin-1-ylmethyl)-3-(2-pyridin-4-yl-thiazol-4-yl)-1H-quinolin-2-one]	< 1 µM
CN1CCN(C(=O)c2ccc3cc(-c4csc(CS(=O)(=O)c5ccccc5)n4)c(=O)[nH]c3c2)CC1 [Example 8733, 7-((4-Methyl-1-piperazinyl)carbonyl)-3-(2-((phenylsulfonyl)methyl)-1,3-thiazol-4-yl)-2(1H)-quinolinone]	< 1 µM
CC(C)NCc1ccc2cc(-c3csc(-c4ccncc4)n3)c(=O)[nH]c2c1 [Example 8768, 7-(Isopropylamino-methyl)-3-(2-pyridin-4-yl-thiazol-4-yl)-1H-quinolin-2-one]	< 1 µM
COc1ccc2cc(-c3csc(C(C)(C)S(=O)(=O)c4ccccc4)n3)c(=O)[nH]c2c1 [Example 8742, 7-(Methoxy)-3-(2-(1-methyl-1-(phenylsulfonyl)ethyl)-1,3-thiazol-4-yl)-2(1H)-quinolinone]	< 1 µM
CC(C)N(C)Cc1ccc2cc(-c3csc(CS(=O)(=O)c4ccccc4)n3)c(=O)[nH]c2c1 [Example 8752, 7-((Methyl(1-methylethyl)amino)methyl)-3-(2-((phenylsulfonyl)methyl)-1,3-thiazol-4-yl)-2(1H)-quinolinone]	< 1 µM
O=C(c1ccc2cc(-c3csc(-c4ccncc4)n3)c(=O)[nH]c2c1)N1CCCCC1 [Example 8761, 7-(Piperidine-1-carbonyl)-3-(2-pyridin-4-yl-thiazol-4-yl)-1H-quinolin-2-one]	< 1 µM
COc1ccc(-c2nc(-c3cc4ccccc4[nH]c3=O)cs2)cn1 [Example 14, 3-[2-(6-Methoxy-3-pyridyl)-1,3-thiazol-4-yl]hydroquinolin-2-one]	< 1 µM
CN(C)CCOc1ccc2cc(-c3csc(-c4ccncc4)n3)c(=O)[nH]c2c1 [Example 8774, 7-((2-(Dimethylamino)ethyl)oxy)-3-(2-(4-pyridinyl)-1,3-thiazol-4-yl)-2(1H)-quinolinone]	< 1 µM

SMILES	IC50
O=C1NCCC=C1c1csc(-c2ccncc2)n1 [Example 8792]	< 1 µM
CC1CN(Cc2ccc3cc(-c4csc(-c5ccncc5)n4)c(=O)[nH]c3c2)CCN1 (stereo not shown) [Example 8783, 7-(3-Methyl-piperazin-1-ylmethyl)-3-(2-pyridin-4-yl-thiazol-4-yl)-1H-quinolin-2-one]	< 1 µM
CCN(CC)CCOc1cc(-c2nc(-c3cc4ccccc4[nH]c3=O)cs2)ccn1 [Example 91, 3-(2-{2-[2-(Diethylamino)ethoxy]-4-pyridyl}-1,3-thiazol-4-yl)hydroquinolin-2-one]	< 1 µM
O=c1[nH]c2ccccc2cc1-c1csc(CS(=O)(=O)c2ccccc2)n1 [Example 64, 3-{2-[(Phenylsulfonyl)methyl]-1,3-thiazol-4-yl}hydroquinolin-2-one]	< 1 µM
Nc1c(-c2csc(-c3ccncc3)n2)c(=O)[nH]c2ccccc12 [Example 6, 3-[2-(4-Pyridyl)-4-thiazolyl]-4-amino-2(1H)-quinolinone]	< 1 µM
Cc1onc(-c2ccccc2)c1-c1csc(-c2cc3ccccc3[nH]c2=O)n1 [Example 116, 3-[4-(5-Methyl-3-phenylisoxazol-4-yl)-1,3-thiazol-2-yl]hydroquinolin-2-one]	< 1 µM
COC(=O)c1cccc2[nH]c(=O)c(-c3csc(-c4ccncc4)n3)cc12 [Example 8, 1,2-Dihydro-2-oxo-3-[2-(4-pyridyl)-4-thiazolyl]-5-quinolinecarboxylic acid methyl ester]	< 1 µM
O=c1[nH]c2ccccc2cc1-c1csc(-c2cccc(Cl)c2Cl)n1 [Example 62, 3-[2-(2,3-Dichlorophenyl)-1,3-thiazol-4-yl]hydroquinolin-2-one]	< 1 µM
CC1CN(Cc2ccc3cc(-c4csc(CS(=O)(=O)c5ccccc5)n4)c(=O)[nH]c3c2)CCN1 (stereo not shown) [Example 8748, 7-((3-methyl-1-piperazinyl)methyl)-3-(2-((phenylsulfonyl)methyl)-1,3-thiazol-4-yl)-2(1H)-quinolinone]	< 1 µM
Nc1c(-c2csc(-c3ccncc3)n2)c(=O)[nH]c2ccc(N3CCCCC3)cc12 [Example 7, 3-[2-(4-Pyridyl)-4-thiazolyl]-4-amino-6-(1-piperidinyl)-2(1H) -quinolinone]	< 1 µM
CN1CCN(c2ccc3[nH]c(=O)c(-c4csc(-c5ccncc5)n4)c(N)c3c2)CC1 [Example 22, 3-[2-(4-Pyridyl)-4-thiazolyl]-4-amino-6-(4-methyl-1-piperazinyl)-2(1H)-quinolinone]	< 1 µM
CC1CN(Cc2ccc3cc(-c4csc(CS(=O)(=O)c5ccccc5)n4)c(=O)[nH]c3c2)CC(C)O1 (stereo not shown) [Example 8756, 7-((2,6-Dimethyl-4-morpholinyl)methyl)-3-(2-((phenylsulfonyl)methyl)-1,3-thiazol-4-yl)-2(1H)-quinolinone]	< 1 µM
COC(=O)c1ccc2cc(-c3csc(N(C)S(=O)(=O)c4ccccc4)n3)c(=O)[nH]c2c1 [Example 8763]	< 1 µM
O=c1[nH]c2ccccc2cc1-c1csc(CS(=O)(=O)c2cccs2)n1 [Example 54, 3-{2-[(2-Thienylsulfonyl)methyl]-1,3-thiazol-4-yl}hydroquinolin-2-one]	< 1 µM
CC1CC(C)CN(Cc2ccc3cc(-c4csc(CS(=O)(=O)c5ccccc5)n4)c(=O)[nH]c3c2)C1 (stereo not shown) [Example 8746, 7-((3,5-Dimethyl-1-piperidinyl)methyl)-3-(2-((phenylsulfonyl)methyl)-1,3-thiazol-4-yl)-2(1H)-quinolinone]	< 1 µM
O=c1[nH]c2cc3c(cc2cc1-c1csc(-c2ccncc2)n1)OCO3 [Example 18, 7-(2-(4-Pyridinyl)-1,3-thiazol-4-yl)[1,3]dioxolo[4,5-g]quinolin-6(5H)-one]	< 1 µM
CCNCCNc1ncc2cc(-c3csc(-c4ccncc4)n3)c(=O)[nH]c2n1 [Example 8791, 2-(2-Ethylamino-ethylamino)-6-(2-pyridyl-4-yl-thiazol-4-yl)-8H-pyrido[2,3-d]pyrimidin-7-one]	< 1 µM

Reference: patent US6822097B1, “Compounds and methods of uses” (Amgen, Inc., priority 2002, dated 2004)
